Test results published in article PMC6494915.
No constants are given. Whether binding was seen depends on the method and setting. Binding seen in cells or lysates may run through a third protein. Some binding calls cover weakened binding; strength is not graded here.

Molecular target: T1, growth arrest and DNA damage protein 45b (Gadd45b) (rat (endogenous in rat ischemic cortex)) (UniProt F7FLQ8)
T1 sequence: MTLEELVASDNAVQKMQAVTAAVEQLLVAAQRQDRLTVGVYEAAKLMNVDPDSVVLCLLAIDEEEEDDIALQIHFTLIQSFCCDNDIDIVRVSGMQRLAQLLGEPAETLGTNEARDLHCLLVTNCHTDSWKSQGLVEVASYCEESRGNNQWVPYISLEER
Test: co-IP; Protein A/G magnetic beads loaded with anti-ALK5, anti-Gadd45b or anti-IgG antibody, incubated with protein samples of rat ischemic cortex for 2 h at 4 °C; eluates Western blotted for ALK5 and Gadd45b; tissue taken 24 h and 14 d after MCAO/R

B1: activin receptor-like kinase 5 (ALK5) (receptor, UniProt P80204 30-501)
chain: LQCFCHLCTKDNFTCETDGLCFVSVTETTDKVIHNSMCIAEIDLIPRDRPFVCAPSSKTGAVTYCCNQDHCNKIELPTTGPFSEKQSAGLGPVELAAVIAGPVCFVCIALMLMVYICHNRTVIHHRVPNEEDPSLDRPFISEGTTLKDLIYDMTTSGSGSGLPLLVQRTIARTIVLQESIGKGRFGEVWRGKWRGEEVAVKIFSSREERSWFREAEIYQTVMLRHENILGFIAADNKDNGTWTQLWLVSDYHEHGSLFDYLNRYTVTVEGMIKLALSTASGLAHLHMEIVGTQGKPAIAHRDLKSKNILVKKNGTCCIADLGLAVRHDSATDTIDIAPNHRVGTKRYMAPEVLDDSINMKHFESFKRADIYAMGLVFWEIARRCSIGGIHEDYQLPYYDLVPSDPSVEEMRKVVCEQKLRPNIPNRWQSCEALRVMAKIMRECWYANGAARLTALRIKKTLSQLSQQEGIKM
**Q.** With B1 as the binder, how does the binding read?
**A.** binds
